Results are given in words; binding and its absence hold for the method and conditions named. In cells and extracts the contact can be indirect. Some results given as binding are weak or reduced against the parent protein; the word gives no strength. Each block holds one molecule with its values, some of them ahead of it.
Assays:
[1] = biological target: T1, Drosophila Clueless (Clu) (Drosophila (endogenous in adult flies and S2R+ cells)) (UniProt A1ZAB5); experiment: co-IP; anti-Clu IP from WT fly extract, with and without RNase A; Western blot
T1 sequence: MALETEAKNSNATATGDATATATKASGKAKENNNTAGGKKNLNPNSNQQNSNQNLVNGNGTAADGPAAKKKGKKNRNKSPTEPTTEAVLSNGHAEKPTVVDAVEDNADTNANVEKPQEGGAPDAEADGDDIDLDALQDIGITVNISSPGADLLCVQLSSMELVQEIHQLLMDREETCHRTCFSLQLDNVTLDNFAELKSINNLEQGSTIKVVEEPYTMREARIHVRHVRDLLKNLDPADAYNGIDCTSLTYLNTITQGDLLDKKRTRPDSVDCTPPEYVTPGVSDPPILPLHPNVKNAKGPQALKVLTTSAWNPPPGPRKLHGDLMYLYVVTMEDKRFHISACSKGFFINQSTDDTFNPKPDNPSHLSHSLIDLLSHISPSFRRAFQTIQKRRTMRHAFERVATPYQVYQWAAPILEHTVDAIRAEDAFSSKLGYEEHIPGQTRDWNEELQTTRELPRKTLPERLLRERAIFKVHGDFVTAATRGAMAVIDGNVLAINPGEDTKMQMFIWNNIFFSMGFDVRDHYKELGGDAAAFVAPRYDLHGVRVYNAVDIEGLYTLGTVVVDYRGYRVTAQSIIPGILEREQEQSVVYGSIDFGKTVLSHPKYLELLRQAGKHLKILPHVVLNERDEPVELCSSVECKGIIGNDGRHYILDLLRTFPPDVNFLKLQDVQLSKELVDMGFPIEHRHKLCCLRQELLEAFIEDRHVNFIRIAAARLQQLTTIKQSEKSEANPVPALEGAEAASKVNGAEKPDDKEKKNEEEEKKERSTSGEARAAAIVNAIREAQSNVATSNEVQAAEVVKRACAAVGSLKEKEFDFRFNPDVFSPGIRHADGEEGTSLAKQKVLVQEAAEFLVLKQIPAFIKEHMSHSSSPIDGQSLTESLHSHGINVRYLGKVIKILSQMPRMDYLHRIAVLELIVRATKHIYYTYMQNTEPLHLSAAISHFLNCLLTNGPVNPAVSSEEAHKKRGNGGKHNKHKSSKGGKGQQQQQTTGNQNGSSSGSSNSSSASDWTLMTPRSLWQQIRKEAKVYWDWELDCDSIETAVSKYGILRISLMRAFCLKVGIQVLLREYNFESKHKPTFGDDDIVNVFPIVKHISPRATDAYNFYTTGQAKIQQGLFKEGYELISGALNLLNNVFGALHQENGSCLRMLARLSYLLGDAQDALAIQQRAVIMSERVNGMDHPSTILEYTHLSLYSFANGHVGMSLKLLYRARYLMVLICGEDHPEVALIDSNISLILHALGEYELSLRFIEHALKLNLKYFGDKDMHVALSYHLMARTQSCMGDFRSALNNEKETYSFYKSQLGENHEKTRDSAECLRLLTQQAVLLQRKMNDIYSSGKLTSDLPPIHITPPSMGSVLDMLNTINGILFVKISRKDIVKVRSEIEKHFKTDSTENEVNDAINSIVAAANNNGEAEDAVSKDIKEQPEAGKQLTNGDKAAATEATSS

Amino acid sequences for entries named in this document (tags omitted).
UniProt Q9VTP4: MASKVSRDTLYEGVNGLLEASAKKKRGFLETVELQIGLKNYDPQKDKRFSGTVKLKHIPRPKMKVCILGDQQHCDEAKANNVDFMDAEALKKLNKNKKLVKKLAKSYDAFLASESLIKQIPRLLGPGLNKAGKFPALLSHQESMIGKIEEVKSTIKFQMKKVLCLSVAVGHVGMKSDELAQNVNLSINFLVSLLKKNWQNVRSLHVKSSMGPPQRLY
UniProt P29327: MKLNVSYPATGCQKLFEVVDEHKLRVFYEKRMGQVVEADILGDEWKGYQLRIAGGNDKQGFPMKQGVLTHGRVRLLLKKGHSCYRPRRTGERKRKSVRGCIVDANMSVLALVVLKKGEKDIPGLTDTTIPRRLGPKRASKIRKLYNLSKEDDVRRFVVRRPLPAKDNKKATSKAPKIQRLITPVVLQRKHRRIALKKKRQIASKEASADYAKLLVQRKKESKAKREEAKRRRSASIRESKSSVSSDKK
UniProt P50882: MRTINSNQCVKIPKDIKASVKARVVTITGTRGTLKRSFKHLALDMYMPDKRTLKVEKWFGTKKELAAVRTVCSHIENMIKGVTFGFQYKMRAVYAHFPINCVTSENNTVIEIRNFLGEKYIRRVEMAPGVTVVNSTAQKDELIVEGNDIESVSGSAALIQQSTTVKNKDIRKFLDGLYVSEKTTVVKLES

[2] = biological target: RpL10Ab fused with GFP at the endogenous locus (Drosophila (endogenous locus in the fly stock)) (UniProt Q9VTP4); experiment: co-IP; anti-GFP IP from extract of the RpL10Ab::GFP trap fly stock, with and without RNase A; Western blot

binding [1]: binds
Molecule: RpS15Aa (from UniProt P48149 1-130)

binding [1]: binds
Molecule: RpS6 (from UniProt P29327 1-248)

binding [1]: binds
Molecule: RpL9 (from UniProt P50882 1-190)

binding [2]: binds
B1: Drosophila Clueless (Clu) (protein, UniProt A1ZAB5 1-1448)
chain: T1 sequence
